The values that follow come from US4687760 (dated 1987).

The nature of the data set: general procedure: solution-phase peptide synthesis; Boc-Trp-OSu active ester with DIEA. The conditions noted are these: late stage modification step.

Strings that start with PEPTIDE1 are HELM notation: dots part the residues, brackets hold end groups and non-standard residues.

Substance “PEPTIDE1{[Boc].W.[NlePsiCH2NHAsp].F.[am]}$$$$V2.0” returned a step yield of 97%.
